From article doi:10.1101/2024.03.08.584044
Results are given in words; binding and its absence hold for the method and conditions named. Binding seen in cells or lysates may run through a third protein. Some results given as binding are weak or reduced against the parent protein; the word gives no strength. For part of these data: Tags and fused reporters may be left off the sequences shown.

Amino acid sequences for entries named in this document (tags omitted).
UniProt O60645: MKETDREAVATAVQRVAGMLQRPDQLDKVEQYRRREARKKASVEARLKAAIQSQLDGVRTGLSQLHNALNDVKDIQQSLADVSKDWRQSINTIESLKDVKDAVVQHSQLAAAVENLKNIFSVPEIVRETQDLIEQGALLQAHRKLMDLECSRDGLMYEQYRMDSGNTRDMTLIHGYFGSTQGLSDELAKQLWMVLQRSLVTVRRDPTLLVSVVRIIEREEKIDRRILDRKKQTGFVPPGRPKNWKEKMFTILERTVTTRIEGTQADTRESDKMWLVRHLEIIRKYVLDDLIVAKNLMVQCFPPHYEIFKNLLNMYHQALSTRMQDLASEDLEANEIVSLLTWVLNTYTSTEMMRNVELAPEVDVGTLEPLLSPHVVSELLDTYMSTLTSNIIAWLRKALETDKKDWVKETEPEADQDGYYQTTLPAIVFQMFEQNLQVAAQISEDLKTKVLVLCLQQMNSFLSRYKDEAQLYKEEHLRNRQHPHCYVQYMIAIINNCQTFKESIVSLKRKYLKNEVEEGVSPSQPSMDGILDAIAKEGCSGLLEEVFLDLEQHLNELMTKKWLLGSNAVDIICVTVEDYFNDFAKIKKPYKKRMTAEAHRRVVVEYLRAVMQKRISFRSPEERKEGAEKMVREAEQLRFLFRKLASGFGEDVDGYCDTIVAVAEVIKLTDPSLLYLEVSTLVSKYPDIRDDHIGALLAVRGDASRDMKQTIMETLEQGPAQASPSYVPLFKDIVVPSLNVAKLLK
UniProt Q0V8C2: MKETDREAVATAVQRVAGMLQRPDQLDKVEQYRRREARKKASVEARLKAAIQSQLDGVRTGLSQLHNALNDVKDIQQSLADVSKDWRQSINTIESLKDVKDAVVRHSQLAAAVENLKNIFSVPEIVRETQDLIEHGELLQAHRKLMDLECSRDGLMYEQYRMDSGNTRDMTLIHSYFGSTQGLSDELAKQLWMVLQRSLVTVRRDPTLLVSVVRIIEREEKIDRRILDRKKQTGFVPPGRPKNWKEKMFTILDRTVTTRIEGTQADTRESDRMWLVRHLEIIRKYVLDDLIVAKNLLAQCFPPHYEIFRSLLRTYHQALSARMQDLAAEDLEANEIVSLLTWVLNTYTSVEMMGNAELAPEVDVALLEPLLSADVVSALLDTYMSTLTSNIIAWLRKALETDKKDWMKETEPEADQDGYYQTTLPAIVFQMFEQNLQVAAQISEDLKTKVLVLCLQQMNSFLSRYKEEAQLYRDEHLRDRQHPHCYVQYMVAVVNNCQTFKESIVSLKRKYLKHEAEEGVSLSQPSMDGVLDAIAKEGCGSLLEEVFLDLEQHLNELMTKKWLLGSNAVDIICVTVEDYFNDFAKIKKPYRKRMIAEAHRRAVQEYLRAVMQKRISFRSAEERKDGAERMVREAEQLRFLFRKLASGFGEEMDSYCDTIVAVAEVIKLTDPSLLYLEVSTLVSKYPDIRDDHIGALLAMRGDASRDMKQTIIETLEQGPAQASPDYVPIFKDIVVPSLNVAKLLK

Columns and labels:
Assay in all cases: co-IP
Sec6-Flag = Sec6-Flag (UniProt O60645)
[1] = molecular target: T1, Rab11a (endogenous, MDBK cells) (bovine (endogenous in MDBK)) (UniProt Q2TA29)
T1 sequence: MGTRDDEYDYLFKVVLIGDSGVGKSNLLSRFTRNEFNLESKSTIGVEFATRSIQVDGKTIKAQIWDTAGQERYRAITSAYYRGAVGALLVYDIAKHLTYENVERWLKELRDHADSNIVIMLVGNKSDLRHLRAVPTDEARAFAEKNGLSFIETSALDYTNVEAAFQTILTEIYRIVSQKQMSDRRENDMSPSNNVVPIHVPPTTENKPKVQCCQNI

SNAP23-HA = molecular target: T2, SNAP23-HA (UniProt O00161)
T2 sequence: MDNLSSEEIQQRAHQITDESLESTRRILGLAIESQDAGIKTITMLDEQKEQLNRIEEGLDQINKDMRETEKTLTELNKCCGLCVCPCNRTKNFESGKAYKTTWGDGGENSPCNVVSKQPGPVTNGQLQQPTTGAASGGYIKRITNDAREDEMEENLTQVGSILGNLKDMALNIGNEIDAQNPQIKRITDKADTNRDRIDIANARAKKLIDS

Rab11a-GFP (from UniProt P62491 1-216) was tested, and the binding (Sec6-Flag) was “binds”.

“Sec6 (endogenous, MDBK cells) (from UniProt Q0V8C2 1-745)” was tested, and the binding [1] was “binds”.

B1: Snapin-GFP (protein, UniProt O95295 1-136)
chain: MAGAGSAAVSGAGTPVAGPTGRDLFAEGLLEFLRPAVQQLDSHVHAVRESQVELREQIDNLATELCRINEDQKVALDLDPYVKKLLNARRRVVLVNNILQNAQERLRRLNHSVAKETARRRAMLDSGIYPPGSPGK
In the case of B1, the binding (SNAP23-HA) is reported as “binds”.
